This is one part of the list. Single values are uncertain here, since repeats match poorly.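 Researchers measured free-swimming zebrafish larvae's O-bend response probability to dark flashes (naive: first five; training: remaining flashes of four 60-flash blocks; test: later 60-flash block) and OMR turning toward alternating leftward/rightward LED motion. Six treated larvae were compared to sixty 0.1% DMSO controls, with |SSMD|≥2 marking a hit.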
system: Danio rerio larvae (5 dpf, TLF); test: OMR-Perf (SSMD vs DMSO vehicle); higher = higher than vehicle (e.g. higher dark-flash O-bend response probability, or better optomotor performance); details: 10 µM; pre-incubation: 30-90 min

Compound | OMR-Perf
CO[C@H]1/C=C/O[C@]2(C)Oc3c(C)c(O)c4c(O)c(c5c(nc6cc(C)ccn65)c4c3C2=O)NC(=O)/C(C)=C\C=C\[C@@H](C)[C@H](O)[C@H](C)[C@@H](O)[C@@H](C)[C@H](OC(C)=O)[C@@H]1C [Rifaximin] | 0.00472
CCOC(=O)n1ccn(C)c1=S [Carbimazole] | -0.255
CC(C)(C)c1cc(NC(=O)Nc2ccc(-c3cn4c(n3)sc3cc(OCCN5CCOCC5)ccc34)cc2)no1 [Quizartinib (AC220)] | 0.168
c1ccc2c(CCNc3ccc(Nc4ccncc4)cc3)c[nH]c2c1 | 0.363
CC[C@H](/C=C/[C@@H](C)[C@@H]1CC[C@H]2[C@@H]3CC=C4C[C@@H](O)CC[C@]4(C)[C@@H]3CC[C@@]21C)C(C)C [Stigmasterol] | 0.163
CCCC(C(=O)OCCN(CC)CC)(c1ccccc1)c1ccccc1.Cl [Proadifen HCl] | -0.77
Cn1cnc2c(F)c(Nc3ccc(Br)cc3Cl)c(C(=O)NOCCO)cc21 [Selumetinib (AZD6244)] | -0.0468
CNC(=O)c1c(F)cccc1Nc1nc(Nc2cc3c(cc2OC)CCN3C(=O)CN(C)C)nc2[nH]ccc12 | -0.232
C[C@@H]1O[C@H](O[C@H]2[C@H](O)[C@@H](O)[C@@H](O[C@H]3[C@H](O)[C@@H](O)[C@H](O)O[C@H]3CO)O[C@H]2CO)[C@H](O)[C@@H](O)[C@@H]1N[C@H]1C=C(CO)[C@@H](O)[C@H](O)[C@@H]1O [Acarbose] | 0.171
COc1cc2ncnc(Nc3ccc(Cl)cc3F)c2cc1OC | 0.729
O=c1c2ccccc2oc2ccccc12 [Xanthone] | -0.512
C#C[C@@]1(OC(C)=O)CC[C@H]2[C@@H]3CCC4=C[C@@H](OC(C)=O)CC[C@@H]4[C@@H]3CC[C@@]21C [Ethynodiol diacetate] | -0.741
CS(=O)(=O)c1ccc([C@@H](O)[C@@H](CF)NC(=O)C(Cl)Cl)cc1 [Florfenicol] | 0.237
NC1CCN(c2c(F)cc3c(=O)c(C(=O)O)cn(C4CC4)c3c2Cl)C1 (stereo not given) | 0.205
C=C1c2c(Cl)ccc(O)c2C(O)=C2C(=O)[C@]3(O)C(O)=C(C(N)=O)C(=O)[C@@H](N(C)C)[C@@H]3[C@@H](O)[C@H]12.O=C(O)c1cc(S(=O)(=O)O)ccc1O [Meclocycline Sulfosalicylate] | 0.00306
C/C(O)=C(\C#N)C(=O)Nc1ccc(C(F)(F)F)cc1 [Teriflunomide] | 0.364
CC(C)=CCC[C@](C)(O[C@@H]1O[C@H](CO[C@@H]2OC[C@@H](O)[C@H](O)[C@@H]2O)[C@@H](O)[C@H](O)[C@@H]1O)[C@@H]1CC[C@]2(C)[C@@H]1[C@H](O)C[C@H]1[C@@]3(C)CC[C@H](O[C@@H]4O[C@H](CO)[C@@H](O)[C@H](O)[C@@H]4O)C(C)(C)[C@@H]3CC[C@]12C [Gynostemma Extract] | -0.0198
COc1cc2c(NC3CCN(CC4CCCCC4)CC3)nc(N3CCCN(C(C)C)CC3)nc2cc1OCCCN1CCCCC1 | 0.0645
C[C@@H]1C[C@H]2[C@@H]3CCC4=CC(=O)C=C[C@]4(C)[C@]3(Cl)[C@H](O)C[C@]2(C)[C@]1(OC(=O)c1ccco1)C(=O)CCl [Mometasone furoate] | 0.201
CC(C)(C)C(=O)C(Oc1ccc(Cl)cc1)n1ccnc1 (stereo not given) [Climbazole] | -0.26

Compound | OMR-Perf
Cc1nc2ccc(CN(C)c3ccc(C(=O)N[C@@H](CCC(=O)O)C(=O)O)s3)cc2c(=O)[nH]1 [Raltitrexed] | -0.297
CN(C)CCCOc1nn(Cc2ccccc2)c2ccccc12.Cl [Benzydamine HCl] | -0.374
CN(C)c1ccc(C(=O)NCCCCCCC(=O)NO)cc1 | -0.205
Cc1cc(O)c2c(c1)C(=O)c1cccc(O)c1C2=O [Chrysophanic Acid] | -0.819
CC(/C=C/C(=O)NO)=C\[C@@H](C)C(=O)c1ccc(N(C)C)cc1 [Trichostatin A (TSA)] | -0.254
CCCCC1C(=O)N(c2ccccc2)N(c2ccccc2)C1=O [Phenylbutazone] | 0.698
CNC[C@H](O)c1cccc(O)c1.Cl [Phenylephrine HCl] | -0.3
Nc1nc(NCCNc2ncc(-n3ccnc3)c(-c3ccc(Cl)cc3Cl)n2)ccc1[N+](=O)[O-] | -0.771
Cc1cc(Nc2cc(N3CCN(C)CC3)nc(/C=C/c3ccccc3)n2)n[nH]1 | 0.176
COc1ccccc1Oc1c(NS(=O)(=O)c2ccc(C(C)(C)C)cc2)nc(-c2ncccn2)nc1OCCO.O [Bosentan Hydrate] | 0.217
Cc1cc(C)c(CNC(=O)c2cc(-c3ccc(CN4CCOCC4)cc3)cc3c2cnn3C2CCCC2)c(=O)[nH]1 | -0.252
NC(=S)NN=Cc1ncccc1N [Triapine] | -0.253
NC(=O)c1noc([C@H](CCCC2CCCCC2)CC(=O)NO)n1 | 0.000579
CCC(NC(C)C)C(O)c1ccc(O)c(O)c1.CS(=O)(=O)O (stereo not given) [Isoetharine Mesylate] | 0.264
Cc1[nH]c(/C=C2\C(=O)Nc3ccc(S(=O)(=O)Cc4c(Cl)cccc4Cl)cc32)c(C)c1C(=O)N1CCC[C@@H]1CN1CCCC1 | 0.76
CN(C)c1ccccc1CN1CCCN(Cc2ccccc2N(C)C)C1c1ccncc1 | 0.201
NCCCC[C@H](N[C@@H](CCc1ccccc1)C(=O)O)C(=O)N1CCC[C@H]1C(=O)O [Lisinopril (Zestril)] | -0.439
COc1ccccc1N1CCN(CC(O)COc2cccc3ccccc23)CC1 (stereo not given) [Naftopidil] | -0.804
CC(=O)OCC(=O)[C@]12N=C(C)O[C@@H]1C[C@H]1[C@@H]3CCC4=CC(=O)C=C[C@]4(C)[C@@H]3[C@H](O)C[C@@]12C [Deflazacort] | 0.366
NC1=N[C@@]2(c3cc(NC(=O)c4ccc(F)cn4)ccc3F)COC[C@@H]2CS1 | -0.267

Looked up above:
NC1=N[C@@]2(c3cc(NC(=O)c4ccc(F)cn4)ccc3F)COC[C@@H]2CS1 | OMR-Perf: -0.267
CCC(NC(C)C)C(O)c1ccc(O)c(O)c1.CS(=O)(=O)O (stereo not given) [Isoetharine Mesylate] | OMR-Perf: 0.264

— the supplement of paper PMC10727501
